Assay results published in patent US20090036387A1, “NOVEL CHEMICAL ENTITIES AFFECTING NEUROBLASTOMA TUMOR-INITIATING CELLS” (The Hospital for Sick Children, priority 2005, published 2009).

System: NB12 tumor-initiating cells
Assay: IC50 determination, Alamar Blue cell survival/growth assay
Type: cell-based
Conditions: Homo sapiens, read-out: NB12 IC50 (nM)
Description: FIG. 4A-4E, according to one embodiment of the invention, presents the IC50 values that were determined for the 64 selected candidate compounds. […] Tumor-initiating cells and normal cells were treated with 10 serial dilutions of compounds (5 μM to 9 nM). […] (FS90=normal cells; NB12=tumor-initiating cells).
FIG. 6A-6FF, according to one embodiment of the invention, presents IC50 values for 32 selected compounds from the LOPAC and Prestwick collections. Tumor-initiating cells (NB12) and normal cells (FS90) were treated with 10 serial dilutions of compounds ranging from 5 μM to 9 nM. Cell survival/growth was assayed using Alamar Blue and the percentage of control Alamar Blue signal was plotted versus log[compound] nM. IC50 values for NB12 are given above each plot.
FIG. 7A-7FF, according to one embodiment of the invention, represents IC50 values determined for 32 selected compounds from the LOPAC, Prestwick, and Spectrum collections. Tumor-initiating cells (NB12) and normal cells (FS90) were treated with 10 serial dilutions of compounds ranging from 5 μM to 9 nM. Cell survival/growth was assayed using Alamar Blue and the percentage of control Alamar Blue signal was plotted versus log[compound] nM (FS90 in dashed line, NB12 in bolded line). IC50 values for NB12 and FS90 are given beside each plot. […]

COc1cc2c(c(OC)c1OC)-c1ccc(OC)c(=O)cc1[C@@H](NC(C)=O)CC2 [Colchicine]
IC50: 29.3 nM
